In the test the target is Vir-like m6A methyltransferase-associated (KIAA1429) protein, endogenous (human (endogenous in SW480, WiDr, HEK293T)) (UniProt Q69YN4). The test can be described thus: affinity purification with mass spectrometry; immunoprecipitation of KIAA1429 from cell lysate (SW480 named for the importin α5 hit), LC-MS of the precipitate; hits filtered by p < 0.05.

Sequences of proteins named here, by UniProt entry; tags and fusion partners are left off.
UniProt Q69YN4: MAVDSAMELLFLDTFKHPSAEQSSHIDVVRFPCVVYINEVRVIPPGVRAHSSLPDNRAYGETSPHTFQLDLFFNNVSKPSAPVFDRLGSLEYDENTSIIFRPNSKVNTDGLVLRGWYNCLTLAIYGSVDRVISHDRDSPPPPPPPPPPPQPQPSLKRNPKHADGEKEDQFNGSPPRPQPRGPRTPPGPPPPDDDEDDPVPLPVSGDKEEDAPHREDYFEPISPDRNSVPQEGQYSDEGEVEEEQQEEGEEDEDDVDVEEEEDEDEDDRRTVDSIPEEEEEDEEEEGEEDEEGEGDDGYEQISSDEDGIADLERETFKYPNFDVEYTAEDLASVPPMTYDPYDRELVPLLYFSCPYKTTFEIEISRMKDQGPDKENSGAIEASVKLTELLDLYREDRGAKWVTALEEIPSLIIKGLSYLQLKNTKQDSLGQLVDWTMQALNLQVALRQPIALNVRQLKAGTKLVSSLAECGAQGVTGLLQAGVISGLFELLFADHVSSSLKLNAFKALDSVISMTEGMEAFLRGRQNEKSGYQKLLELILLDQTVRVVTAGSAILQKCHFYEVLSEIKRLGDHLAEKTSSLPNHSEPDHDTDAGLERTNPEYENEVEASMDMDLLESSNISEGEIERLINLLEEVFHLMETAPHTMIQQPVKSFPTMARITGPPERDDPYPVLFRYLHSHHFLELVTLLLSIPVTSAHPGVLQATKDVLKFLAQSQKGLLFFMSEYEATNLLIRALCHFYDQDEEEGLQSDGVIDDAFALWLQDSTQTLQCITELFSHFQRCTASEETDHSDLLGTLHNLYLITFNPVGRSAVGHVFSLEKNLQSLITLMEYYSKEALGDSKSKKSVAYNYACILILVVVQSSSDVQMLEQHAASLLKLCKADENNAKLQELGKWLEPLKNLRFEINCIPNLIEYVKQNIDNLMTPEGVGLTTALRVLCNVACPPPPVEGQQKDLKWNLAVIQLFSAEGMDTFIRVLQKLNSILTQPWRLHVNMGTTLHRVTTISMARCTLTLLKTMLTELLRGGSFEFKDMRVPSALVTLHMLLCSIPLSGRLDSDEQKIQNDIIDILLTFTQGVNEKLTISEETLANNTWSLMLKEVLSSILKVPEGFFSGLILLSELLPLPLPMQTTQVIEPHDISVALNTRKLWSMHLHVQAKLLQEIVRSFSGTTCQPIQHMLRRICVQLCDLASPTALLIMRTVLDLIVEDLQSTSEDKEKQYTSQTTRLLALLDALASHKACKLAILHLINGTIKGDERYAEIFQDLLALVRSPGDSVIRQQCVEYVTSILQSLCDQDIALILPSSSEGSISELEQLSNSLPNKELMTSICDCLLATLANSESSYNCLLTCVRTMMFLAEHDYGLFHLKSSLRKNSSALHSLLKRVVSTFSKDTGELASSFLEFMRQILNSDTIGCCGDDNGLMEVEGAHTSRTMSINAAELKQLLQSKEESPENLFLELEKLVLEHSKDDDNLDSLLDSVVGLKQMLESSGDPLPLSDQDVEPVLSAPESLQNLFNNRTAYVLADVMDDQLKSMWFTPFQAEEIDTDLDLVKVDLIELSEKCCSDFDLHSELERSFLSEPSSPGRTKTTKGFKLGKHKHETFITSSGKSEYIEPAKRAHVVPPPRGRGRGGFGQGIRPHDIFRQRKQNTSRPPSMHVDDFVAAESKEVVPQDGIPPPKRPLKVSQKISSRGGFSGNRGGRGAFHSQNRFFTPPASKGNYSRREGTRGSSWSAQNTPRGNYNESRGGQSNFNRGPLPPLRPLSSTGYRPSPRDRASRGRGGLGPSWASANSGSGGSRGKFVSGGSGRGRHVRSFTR
UniProt P15056: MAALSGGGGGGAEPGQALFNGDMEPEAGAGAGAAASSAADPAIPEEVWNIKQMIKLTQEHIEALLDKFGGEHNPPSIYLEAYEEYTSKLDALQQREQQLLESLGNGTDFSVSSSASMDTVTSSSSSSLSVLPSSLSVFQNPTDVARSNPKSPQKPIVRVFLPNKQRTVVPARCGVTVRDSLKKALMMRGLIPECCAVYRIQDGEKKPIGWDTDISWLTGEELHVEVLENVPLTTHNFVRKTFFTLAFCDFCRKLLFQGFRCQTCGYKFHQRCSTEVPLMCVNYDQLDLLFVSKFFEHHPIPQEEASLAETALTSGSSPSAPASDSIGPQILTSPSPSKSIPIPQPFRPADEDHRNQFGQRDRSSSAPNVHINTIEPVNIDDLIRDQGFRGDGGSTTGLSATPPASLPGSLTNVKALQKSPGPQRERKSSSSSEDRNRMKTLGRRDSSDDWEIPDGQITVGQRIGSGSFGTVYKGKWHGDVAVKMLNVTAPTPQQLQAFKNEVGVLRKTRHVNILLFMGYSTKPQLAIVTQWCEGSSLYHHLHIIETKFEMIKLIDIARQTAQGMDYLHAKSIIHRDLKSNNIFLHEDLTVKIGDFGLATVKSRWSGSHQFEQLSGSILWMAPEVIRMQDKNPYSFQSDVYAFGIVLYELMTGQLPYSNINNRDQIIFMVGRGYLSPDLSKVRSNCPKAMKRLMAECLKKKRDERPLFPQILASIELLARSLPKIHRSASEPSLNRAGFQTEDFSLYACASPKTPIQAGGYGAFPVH
UniProt P52294: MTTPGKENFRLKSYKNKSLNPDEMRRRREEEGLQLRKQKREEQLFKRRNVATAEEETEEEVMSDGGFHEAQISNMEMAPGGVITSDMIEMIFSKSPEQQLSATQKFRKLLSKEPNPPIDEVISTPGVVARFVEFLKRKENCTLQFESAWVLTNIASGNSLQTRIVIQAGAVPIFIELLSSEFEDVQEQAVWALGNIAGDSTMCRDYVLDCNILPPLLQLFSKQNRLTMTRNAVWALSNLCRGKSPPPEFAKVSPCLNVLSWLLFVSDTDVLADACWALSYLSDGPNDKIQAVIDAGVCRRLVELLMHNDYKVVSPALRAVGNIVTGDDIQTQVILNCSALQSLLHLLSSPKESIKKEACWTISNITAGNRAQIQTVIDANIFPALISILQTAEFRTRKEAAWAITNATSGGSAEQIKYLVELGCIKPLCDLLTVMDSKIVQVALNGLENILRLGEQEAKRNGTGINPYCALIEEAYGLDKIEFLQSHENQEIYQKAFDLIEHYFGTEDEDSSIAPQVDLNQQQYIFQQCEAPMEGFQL

Results are given in words; binding and its absence hold for the method and conditions named. In cells and extracts the contact can be indirect. A yes stands for co-enrichment or nearness to the bait. Other partners may have been found.

As to “BRAF, endogenous in SW480 cells (from UniProt P15056 1-766) (enzyme)”, the binding result is given as “binds”.
For the substance “importin α5, endogenous (from UniProt P52294 1-538)”, the binding result is on record as “binds”.

The record behind these values is PMC12225155.
